Results: the supplement of paper PMC10849652
This is one part of the list.

The chains behind the UniProt entries cited, without tags or fusion partners. Where a name states a change or a piece, a line headed by the entry shows the natural chain unless it says otherwise.
UniProt P62937, whole entry, looked up: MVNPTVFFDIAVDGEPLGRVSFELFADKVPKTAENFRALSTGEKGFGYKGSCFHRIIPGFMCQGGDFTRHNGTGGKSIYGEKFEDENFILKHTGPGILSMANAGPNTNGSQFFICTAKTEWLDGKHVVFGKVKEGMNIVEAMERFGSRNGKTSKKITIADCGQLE
UniProt O43314: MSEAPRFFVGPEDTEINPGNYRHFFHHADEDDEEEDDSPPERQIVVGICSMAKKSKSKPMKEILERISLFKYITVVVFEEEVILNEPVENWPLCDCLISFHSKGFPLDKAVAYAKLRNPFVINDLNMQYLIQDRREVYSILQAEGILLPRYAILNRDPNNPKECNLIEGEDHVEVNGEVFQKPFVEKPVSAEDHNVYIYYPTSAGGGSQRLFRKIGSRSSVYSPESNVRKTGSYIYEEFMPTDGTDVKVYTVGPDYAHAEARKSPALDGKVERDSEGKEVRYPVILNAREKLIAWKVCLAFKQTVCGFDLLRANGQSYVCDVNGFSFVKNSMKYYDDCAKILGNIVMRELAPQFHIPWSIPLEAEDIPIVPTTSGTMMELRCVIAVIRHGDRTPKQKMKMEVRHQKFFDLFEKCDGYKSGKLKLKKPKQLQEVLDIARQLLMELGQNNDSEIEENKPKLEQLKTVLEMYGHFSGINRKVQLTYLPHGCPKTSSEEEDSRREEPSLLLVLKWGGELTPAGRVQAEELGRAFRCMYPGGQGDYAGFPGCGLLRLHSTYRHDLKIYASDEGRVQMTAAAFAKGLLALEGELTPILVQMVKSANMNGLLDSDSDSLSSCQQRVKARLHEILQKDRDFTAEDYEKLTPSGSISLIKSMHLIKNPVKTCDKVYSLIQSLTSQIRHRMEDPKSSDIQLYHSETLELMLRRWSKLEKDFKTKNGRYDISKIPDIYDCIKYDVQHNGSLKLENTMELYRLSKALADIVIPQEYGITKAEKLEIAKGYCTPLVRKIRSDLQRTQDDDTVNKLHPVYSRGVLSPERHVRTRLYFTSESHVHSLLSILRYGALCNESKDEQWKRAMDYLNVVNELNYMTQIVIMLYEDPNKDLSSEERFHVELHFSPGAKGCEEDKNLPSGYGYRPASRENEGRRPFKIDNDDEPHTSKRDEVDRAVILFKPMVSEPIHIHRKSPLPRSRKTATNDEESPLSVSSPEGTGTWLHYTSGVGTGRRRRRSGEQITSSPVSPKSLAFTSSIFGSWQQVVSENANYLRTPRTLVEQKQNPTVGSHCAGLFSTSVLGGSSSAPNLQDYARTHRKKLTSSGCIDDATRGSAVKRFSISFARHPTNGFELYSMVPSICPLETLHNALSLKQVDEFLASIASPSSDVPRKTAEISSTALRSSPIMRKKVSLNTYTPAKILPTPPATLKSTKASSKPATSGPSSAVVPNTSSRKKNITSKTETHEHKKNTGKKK
UniProt Q9NVS9: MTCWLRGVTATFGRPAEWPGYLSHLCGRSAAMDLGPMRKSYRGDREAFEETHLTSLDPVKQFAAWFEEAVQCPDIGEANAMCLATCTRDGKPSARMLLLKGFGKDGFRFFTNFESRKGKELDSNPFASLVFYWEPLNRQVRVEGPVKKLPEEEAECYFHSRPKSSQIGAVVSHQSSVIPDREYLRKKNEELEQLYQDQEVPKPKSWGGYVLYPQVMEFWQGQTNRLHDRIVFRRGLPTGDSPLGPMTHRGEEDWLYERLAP
UniProt O15031: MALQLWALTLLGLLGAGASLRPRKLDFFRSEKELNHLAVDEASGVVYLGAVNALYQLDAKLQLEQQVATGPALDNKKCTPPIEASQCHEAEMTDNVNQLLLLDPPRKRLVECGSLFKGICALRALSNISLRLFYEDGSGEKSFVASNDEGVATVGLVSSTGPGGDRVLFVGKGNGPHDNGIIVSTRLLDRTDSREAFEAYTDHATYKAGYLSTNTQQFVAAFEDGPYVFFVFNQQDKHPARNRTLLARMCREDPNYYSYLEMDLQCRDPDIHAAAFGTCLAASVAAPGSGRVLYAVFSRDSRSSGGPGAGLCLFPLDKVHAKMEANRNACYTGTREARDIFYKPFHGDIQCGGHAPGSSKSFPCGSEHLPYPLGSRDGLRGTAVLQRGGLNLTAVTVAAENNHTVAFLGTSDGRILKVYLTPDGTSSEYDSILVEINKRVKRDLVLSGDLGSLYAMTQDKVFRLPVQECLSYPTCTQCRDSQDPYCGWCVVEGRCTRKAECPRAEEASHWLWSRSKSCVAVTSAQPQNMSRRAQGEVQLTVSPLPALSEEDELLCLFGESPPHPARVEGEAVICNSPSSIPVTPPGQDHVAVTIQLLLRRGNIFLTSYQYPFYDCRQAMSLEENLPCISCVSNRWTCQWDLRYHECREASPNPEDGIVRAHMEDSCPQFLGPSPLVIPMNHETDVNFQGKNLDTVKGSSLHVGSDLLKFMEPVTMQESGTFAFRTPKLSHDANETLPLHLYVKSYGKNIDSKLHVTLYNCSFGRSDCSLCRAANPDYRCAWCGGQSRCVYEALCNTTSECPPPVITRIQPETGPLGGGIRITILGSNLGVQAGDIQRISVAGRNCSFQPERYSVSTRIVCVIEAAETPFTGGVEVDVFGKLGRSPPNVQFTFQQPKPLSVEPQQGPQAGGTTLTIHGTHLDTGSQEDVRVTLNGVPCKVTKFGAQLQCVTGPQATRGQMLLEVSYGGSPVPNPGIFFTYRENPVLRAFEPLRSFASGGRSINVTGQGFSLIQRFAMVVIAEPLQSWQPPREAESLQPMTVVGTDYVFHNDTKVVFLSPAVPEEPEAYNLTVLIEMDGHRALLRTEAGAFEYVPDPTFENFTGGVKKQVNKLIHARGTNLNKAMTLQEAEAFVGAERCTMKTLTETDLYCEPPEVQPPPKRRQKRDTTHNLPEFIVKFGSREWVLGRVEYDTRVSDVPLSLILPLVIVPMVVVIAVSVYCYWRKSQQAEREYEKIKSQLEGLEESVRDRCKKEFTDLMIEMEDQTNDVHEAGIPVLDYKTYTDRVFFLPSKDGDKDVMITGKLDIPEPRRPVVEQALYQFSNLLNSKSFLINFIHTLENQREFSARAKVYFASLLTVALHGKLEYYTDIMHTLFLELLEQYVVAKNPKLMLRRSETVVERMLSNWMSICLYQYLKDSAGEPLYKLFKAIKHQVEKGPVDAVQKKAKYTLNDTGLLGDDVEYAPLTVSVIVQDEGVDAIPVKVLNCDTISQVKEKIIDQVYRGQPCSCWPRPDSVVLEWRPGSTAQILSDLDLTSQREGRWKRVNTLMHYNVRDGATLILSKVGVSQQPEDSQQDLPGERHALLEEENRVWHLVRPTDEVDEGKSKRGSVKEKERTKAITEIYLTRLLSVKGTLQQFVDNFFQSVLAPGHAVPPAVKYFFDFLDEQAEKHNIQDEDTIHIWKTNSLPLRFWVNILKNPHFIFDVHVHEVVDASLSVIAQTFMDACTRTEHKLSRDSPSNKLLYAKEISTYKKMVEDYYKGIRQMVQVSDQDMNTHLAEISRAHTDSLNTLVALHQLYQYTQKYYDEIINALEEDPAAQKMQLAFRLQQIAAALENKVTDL
UniProt Q9NQ55: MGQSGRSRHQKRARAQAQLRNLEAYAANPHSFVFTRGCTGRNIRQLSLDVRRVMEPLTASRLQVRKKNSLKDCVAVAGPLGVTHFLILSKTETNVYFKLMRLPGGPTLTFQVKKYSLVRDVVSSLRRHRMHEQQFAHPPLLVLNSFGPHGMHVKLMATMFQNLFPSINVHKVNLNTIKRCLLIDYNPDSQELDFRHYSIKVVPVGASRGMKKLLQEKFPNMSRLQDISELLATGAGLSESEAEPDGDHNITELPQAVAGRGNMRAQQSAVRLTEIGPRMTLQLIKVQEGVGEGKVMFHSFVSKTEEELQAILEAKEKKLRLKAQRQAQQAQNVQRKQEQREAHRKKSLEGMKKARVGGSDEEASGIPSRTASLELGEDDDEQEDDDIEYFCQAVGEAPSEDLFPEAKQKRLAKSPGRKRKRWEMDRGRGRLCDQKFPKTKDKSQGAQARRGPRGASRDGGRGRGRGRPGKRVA
UniProt Q9H2U2: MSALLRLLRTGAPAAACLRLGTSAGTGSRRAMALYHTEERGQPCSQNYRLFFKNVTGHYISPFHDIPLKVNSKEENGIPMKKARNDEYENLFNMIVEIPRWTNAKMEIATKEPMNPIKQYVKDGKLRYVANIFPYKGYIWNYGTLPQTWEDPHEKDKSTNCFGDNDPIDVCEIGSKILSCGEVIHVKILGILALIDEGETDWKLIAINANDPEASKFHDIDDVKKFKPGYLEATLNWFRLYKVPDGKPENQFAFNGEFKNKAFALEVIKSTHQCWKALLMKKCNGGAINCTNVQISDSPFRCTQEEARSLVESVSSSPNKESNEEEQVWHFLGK
UniProt Q969H6: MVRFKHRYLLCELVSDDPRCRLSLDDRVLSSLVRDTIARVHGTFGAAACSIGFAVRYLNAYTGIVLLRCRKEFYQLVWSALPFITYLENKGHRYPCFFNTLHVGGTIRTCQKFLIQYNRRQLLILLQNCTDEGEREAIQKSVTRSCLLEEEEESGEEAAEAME
UniProt Q96CD2: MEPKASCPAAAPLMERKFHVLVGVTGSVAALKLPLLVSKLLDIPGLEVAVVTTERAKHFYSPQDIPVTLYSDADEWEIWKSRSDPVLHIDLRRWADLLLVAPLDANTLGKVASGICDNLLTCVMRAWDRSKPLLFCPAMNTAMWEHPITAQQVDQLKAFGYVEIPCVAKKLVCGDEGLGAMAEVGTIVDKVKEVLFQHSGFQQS
UniProt Q6UW63: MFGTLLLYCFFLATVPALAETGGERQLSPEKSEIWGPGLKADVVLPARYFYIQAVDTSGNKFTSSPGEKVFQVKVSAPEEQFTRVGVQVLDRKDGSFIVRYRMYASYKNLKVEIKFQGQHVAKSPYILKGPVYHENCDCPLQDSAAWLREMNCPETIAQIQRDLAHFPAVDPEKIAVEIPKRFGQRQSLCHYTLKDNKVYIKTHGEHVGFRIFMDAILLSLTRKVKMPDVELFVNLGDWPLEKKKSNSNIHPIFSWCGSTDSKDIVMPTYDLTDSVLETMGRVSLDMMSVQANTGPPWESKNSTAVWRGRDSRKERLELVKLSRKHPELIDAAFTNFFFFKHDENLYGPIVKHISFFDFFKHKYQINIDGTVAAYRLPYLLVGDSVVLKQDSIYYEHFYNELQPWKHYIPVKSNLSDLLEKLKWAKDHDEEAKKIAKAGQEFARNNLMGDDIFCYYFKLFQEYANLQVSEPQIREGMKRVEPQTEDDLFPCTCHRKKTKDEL
UniProt Q9H1D9: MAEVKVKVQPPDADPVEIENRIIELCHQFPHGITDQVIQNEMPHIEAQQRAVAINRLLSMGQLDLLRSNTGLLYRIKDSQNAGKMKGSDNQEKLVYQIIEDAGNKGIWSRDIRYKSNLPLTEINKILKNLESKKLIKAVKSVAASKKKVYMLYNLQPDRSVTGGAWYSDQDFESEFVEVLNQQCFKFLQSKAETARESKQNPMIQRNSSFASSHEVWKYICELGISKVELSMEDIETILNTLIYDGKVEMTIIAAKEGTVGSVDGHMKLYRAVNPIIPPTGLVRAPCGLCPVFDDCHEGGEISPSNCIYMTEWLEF
UniProt P14859: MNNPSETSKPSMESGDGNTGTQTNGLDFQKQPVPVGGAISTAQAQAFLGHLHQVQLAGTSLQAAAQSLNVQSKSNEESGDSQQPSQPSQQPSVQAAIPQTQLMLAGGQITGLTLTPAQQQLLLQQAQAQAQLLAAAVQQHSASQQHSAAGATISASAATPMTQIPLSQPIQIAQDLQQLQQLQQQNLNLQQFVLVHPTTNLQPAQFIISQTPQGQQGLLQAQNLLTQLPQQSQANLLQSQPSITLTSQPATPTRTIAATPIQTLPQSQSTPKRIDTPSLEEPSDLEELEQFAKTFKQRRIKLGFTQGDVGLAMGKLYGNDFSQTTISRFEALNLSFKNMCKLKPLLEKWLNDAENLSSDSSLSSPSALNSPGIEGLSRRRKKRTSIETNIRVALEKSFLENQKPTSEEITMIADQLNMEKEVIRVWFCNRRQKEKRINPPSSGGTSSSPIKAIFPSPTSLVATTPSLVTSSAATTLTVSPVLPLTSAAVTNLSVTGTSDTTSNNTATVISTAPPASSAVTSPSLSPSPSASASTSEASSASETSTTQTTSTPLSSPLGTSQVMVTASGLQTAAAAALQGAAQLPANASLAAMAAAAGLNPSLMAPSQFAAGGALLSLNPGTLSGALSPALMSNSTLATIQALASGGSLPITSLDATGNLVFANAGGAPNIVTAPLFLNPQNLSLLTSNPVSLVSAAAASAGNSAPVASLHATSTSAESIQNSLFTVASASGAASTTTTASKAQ
UniProt Q9UNP9: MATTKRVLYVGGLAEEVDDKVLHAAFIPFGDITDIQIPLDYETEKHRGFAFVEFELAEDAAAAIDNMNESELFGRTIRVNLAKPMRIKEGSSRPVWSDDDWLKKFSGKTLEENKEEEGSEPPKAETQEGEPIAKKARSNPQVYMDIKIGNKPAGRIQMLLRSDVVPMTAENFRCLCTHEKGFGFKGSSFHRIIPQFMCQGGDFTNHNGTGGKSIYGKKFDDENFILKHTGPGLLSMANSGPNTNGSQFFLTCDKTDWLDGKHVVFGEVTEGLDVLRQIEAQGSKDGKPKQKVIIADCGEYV

compound: CN1CCN(CCOc2cc(OC3CCOCC3)c3c(Nc4c(Cl)ccc5c4OCO5)ncnc3c2)CC1 [saracatinib]; test: log2 fold change, soluble protein after heating vs DMSO (PISA); higher = thermal stabilisation; K562 cells, 10 uM, 30 min; active = over 0.2 and 3.5 SD of the protein, either way, in both replicates (recomputed)
How it was run: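 K562 cells at 2×10^6 cells/mL were treated for 30 min with 10 μM compound, and aliquots were heated for 3 min over 48°C-58°C before pooling. Extraction used PBS with 0.5% NP-40 at 4°C, and soluble protein was the supernatant after 21,000xg for 90 min, measured by TMTpro 16plex LC-MS/MS with channel sums equalised. Thermal stability values, relative to control samples and from duplicates, are log2 fold changes.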

Target	log2 fold change
POFUT2 (UniProt Q9Y2G5)	inactive: -0.083
PPIA (UniProt P62937)	inactive: 0.006
POLR3C (UniProt Q9BUI4)	inactive: 0.036
POFUT1 (UniProt Q9H488)	inactive: 0.009
PPM1B (UniProt O75688)	inactive: 0
PPIP5K2 (UniProt O43314)	inactive: 0.015
PNPO (UniProt Q9NVS9)	inactive: 0.019
POLDIP3 (UniProt Q9BY77)	inactive: -0.003
PPFIA1 (UniProt Q13136)	inactive: 0.024
PMF1 (UniProt Q6P1K2)	inactive: -0.1
POLG2 (UniProt Q9UHN1)	inactive: 0.007
PLOD3 (UniProt O60568)	inactive: -0.069
PLXNB2 (UniProt O15031)	inactive: -0.012
PNO1 (UniProt Q9NRX1)	inactive: -0.117
PLIN3 (UniProt O60664)	inactive: 0.047
POMGNT1 isoform 2 (UniProt Q8WZA1)	inactive: -0.058
POP7 (UniProt O75817)	inactive: -0.022

Target	log2 fold change
PPAT (UniProt Q06203)	inactive: 0.022
PPAN isoform 3 (UniProt Q9NQ55)	inactive: -0.069
PPA2 (UniProt Q9H2U2)	inactive: 0.006
POP5 (UniProt Q969H6)	inactive: 0.026
POSTN (UniProt Q15063)	inactive: -0.016
POLDIP2 (UniProt Q9Y2S7)	inactive: 0.029
PPCDC (UniProt Q96CD2)	inactive: -0.039
POLR2H (UniProt P52434)	inactive: -0.026
POGLUT2 (UniProt Q6UW63)	inactive: -0.067
POLR3F (UniProt Q9H1D9)	inactive: 0.069
PPA1 (UniProt Q15181)	inactive: -0.03
POTEF (UniProt A5A3E0)	inactive: 0.086
POU2F1 isoform 6 (UniProt P14859)	inactive: -0.01
PNKD isoform 2 (UniProt Q8N490)	inactive: -0.038
PPIF (UniProt P30405)	inactive: 0.011
PPIE (UniProt Q9UNP9)	inactive: 0.059

Reprinted from the listing for reference:
Target	log2 fold change
POU2F1 isoform 6 (UniProt P14859)	inactive: -0.01
PNKD isoform 2 (UniProt Q8N490)	inactive: -0.038
PPIF (UniProt P30405)	inactive: 0.011
